Results as given in paper PMC4977710.

By UniProt entry, the sequences of proteins in these tests, tags left out. Where a name states a change or a piece, a line headed by the entry shows the natural chain unless it says otherwise.
UniProt Q5CSA5: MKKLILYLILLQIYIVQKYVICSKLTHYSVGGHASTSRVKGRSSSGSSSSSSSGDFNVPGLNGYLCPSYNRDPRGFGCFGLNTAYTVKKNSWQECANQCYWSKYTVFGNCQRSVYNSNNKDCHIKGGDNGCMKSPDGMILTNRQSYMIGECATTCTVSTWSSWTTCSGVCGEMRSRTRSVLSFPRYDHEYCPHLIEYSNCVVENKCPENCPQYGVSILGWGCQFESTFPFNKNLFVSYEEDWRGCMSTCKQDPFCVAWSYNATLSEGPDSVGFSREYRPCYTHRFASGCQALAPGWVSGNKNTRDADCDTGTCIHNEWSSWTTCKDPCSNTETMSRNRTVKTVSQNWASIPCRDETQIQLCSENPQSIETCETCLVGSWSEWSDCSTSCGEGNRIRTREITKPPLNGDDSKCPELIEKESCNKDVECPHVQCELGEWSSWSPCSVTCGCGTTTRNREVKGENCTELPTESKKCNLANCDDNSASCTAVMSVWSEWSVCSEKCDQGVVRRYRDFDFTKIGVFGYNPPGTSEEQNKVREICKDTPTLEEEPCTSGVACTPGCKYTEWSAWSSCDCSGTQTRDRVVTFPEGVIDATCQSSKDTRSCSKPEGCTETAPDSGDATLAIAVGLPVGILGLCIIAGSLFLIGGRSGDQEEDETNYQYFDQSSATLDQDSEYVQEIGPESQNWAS

Assays:
[1] = molecular target: T1, Toxoplasma gondii rhomboid 2 (pGBKT7-TgROM2) (Toxoplasma gondii) (UniProt Q695T9); assay: two-hybrid; Matchmaker GAL4 system, bait (pGBKT7) and prey (pGADT7) plasmids co-transformed into yeast AH109, 30 °C; growth on SD/-Trp/-His/-Leu/-Ade and β-galactosidase activity assay
T1 sequence: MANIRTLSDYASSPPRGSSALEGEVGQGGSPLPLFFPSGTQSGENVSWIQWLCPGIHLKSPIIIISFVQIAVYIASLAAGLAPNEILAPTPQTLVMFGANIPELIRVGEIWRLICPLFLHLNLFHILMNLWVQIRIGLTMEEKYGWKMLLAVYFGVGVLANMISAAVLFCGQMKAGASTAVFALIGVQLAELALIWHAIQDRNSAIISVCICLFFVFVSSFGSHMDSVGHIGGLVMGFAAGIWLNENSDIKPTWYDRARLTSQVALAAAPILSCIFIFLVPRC

[2] = molecular target: Cryptosporidium parvum rhomboid 1 (pGBKT7-CpROM1) (Cryptosporidium parvum) (UniProt F0X528); assay: as above

Substance | binding [1] | binding [2]
I-S domain (Ile148-Ser687) of CpTRAP-C1 (pGADT7-CpTRAP-C1) (from UniProt Q5CSA5) (domain or fragment) | binds | no binding
A-T domain (Ala1641-Thr1816) of CpGP900 (pGADT7-CpGP900) (from UniProt O96503) (domain or fragment) |  | binds

These are yes or no findings as the source states them, for the method shown. Binding can be weak; no strength is given.
